This note sets out measurements from article PMC11217373.

Construct, isoform or probe ends are uncertain for at least one entry. At least one verdict was read from the data and is not stated in words by the source. Where a protein sequence is shown, tags need not be part of it.

Data set [1] concerns the target T1, GST-CTCF-ZF-wt (ZF1-11) (Mus musculus (cDNA of mESCs)) (UniProt Q61164).
T1 sequence (looked up): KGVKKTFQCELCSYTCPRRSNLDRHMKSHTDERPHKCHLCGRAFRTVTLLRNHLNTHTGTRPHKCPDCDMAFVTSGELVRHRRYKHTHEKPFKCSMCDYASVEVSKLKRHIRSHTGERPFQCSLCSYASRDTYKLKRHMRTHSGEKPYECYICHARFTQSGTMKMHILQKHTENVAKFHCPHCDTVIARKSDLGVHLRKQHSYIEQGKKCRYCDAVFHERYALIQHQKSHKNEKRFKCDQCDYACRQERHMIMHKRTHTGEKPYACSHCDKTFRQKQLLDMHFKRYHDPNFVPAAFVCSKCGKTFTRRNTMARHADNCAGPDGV
Put plainly: GST pull-down, dot blot. The settings on record: pull-down: 6-12 h with glutathione agarose, washed in PBS + 1% Triton X-100, recombinant protein, residues 260-583, protein details: N-terminal GST (pGEX-4T-2).

For data set [2], the target named is T1, GST-CTCF-ZF-wt (ZF1-11) (Mus musculus (cDNA of mESCs)). The data set is described as follows: EMSA. The settings on record: EMSA: Beyotime GS009 kit buffer, 10-20 min at RT, 5% native PAGE in ice-cold 0.5x TBE, recombinant protein, residues 260-583, protein details: N-terminal GST (pGEX-4T-2). (In EMSA bound probe runs differently from free probe, usually more slowly.)

As for “CTTTTGGAACTGCAGTTTAG (double strand) [M2 (U motif)]”, the binding result in data set [1] (label: Cy5 or biotin on M2-F) and in data set [2] (label: Cy5 or biotin on M2-F) was “binds” in each case.

On to “CTTTTTGGTGCCCTCTGCTGGCCAGTTTAG (double strand) [M1 (C motif)]”, for which the binding result in data set [1] (label: Cy5 or biotin on M1-F) and in data set [2] (label: Cy5 or biotin on M1-F) was “binds” throughout. On to “CTTTTTGGTGCCCTCTGCTGGCCACTGGAGGACCGAAAGTTTAG (double strand) [M1+M2 (mut) (mutant U+C motif)]”, for which the binding result in data set [1] (label: biotin (pull-down)) is listed as “binds”.

For the sequence “CTTTTTGGTGCCCTCTGCTGGCCACTGGAGGAACTGCAGTTTAG (double strand) [M1+M2 (U+C motif)]”, the binding result in data set [1] (label: biotin (pull-down, Cy5 version listed) on F strand) is listed as “binds”.
